This assay has as its target Human NKp46-His recombinant protein (human) (UniProt O76036). Nature of the assay: western blot, reducing SDS-PAGE, 100, 50 and 10 ng of protein loaded. (In general: Immunoblotting shows a protein as a band on a membrane.)

Protein sequences, listed by entry. Tags and fused reporters are not part of them. Lines headed by an entry give the natural chain unless they say otherwise; changes in a name come on top.
UniProt O76036: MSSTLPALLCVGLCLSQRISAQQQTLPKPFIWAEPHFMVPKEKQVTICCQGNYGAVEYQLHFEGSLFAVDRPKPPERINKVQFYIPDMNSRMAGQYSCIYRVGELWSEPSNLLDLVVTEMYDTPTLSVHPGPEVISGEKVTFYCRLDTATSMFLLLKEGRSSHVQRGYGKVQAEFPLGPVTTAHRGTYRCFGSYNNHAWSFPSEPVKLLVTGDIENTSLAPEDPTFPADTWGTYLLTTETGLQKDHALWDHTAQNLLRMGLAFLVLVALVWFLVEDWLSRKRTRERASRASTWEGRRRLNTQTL

These are yes or no findings as the source states them, for the method shown. Some results given as binding are weak or reduced against the parent protein; the word gives no strength.

B1: 8E5B antibody (antibody, mouse IgG1, V domains shown)
VH: EIQLQQSGAELVKPGASVKLSCTASGFNIKDTYFHWVKQRPEQGLEWIGRIDPANGNTKYDPKFHDKATIIADISSNTAYLQFSSLTSEDTAVYYCAANRYGYWGQGTTLTVSS
VL: DIVMTQAAPSIPVTPGESVSISCRSSKSLLYINGNTHLFWFLQRPGQSPQLLIYRMSNLASGVPDRFSGSGSGTAFTLRISRVEAEDVGVYYCMQHLEYPFTFGSGTKLEIK
notes: Mouse monoclonal antibody; also called 8E5-B clone; monoclonal antibody 8E5B
With B1, the binding result was “binds”.
